Laboratory results: PubChem BioAssay AID504784 (Drosophila RNAi Screening Center, 2011)

Purpose: 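Genome-wide knock-down for genes giving too much or too little stored lipid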 (primary screen)
System: Drosophila Kc167 embryonic cells
Reagent: long dsRNA against Drosophila genes, about 250 ng dsRNA per well
Time to read-out: 4 days
Treatment: cells fed 400 µM oleic acid bound to BSA
Measurement: 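Cells imaged and segmented; ratio of lipid droplet area to nuclear area, log-transformed, then normalised as a B-score over the screen; higher means more stored lipid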
Reading the numbers: droplet/nuclear area B-score: higher = more stored lipid (overstorage)
The deposit covers about 17,000 reagents; this is an unselected part of those that have a named target and a result. 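Each column is one replicate's B-score; the combined score over replicates was not deposited, so single values may mislead.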 The numbers tell different reagents against one gene apart. Names joined by + are all predicted targets of the reagent. Further read-outs or replicates are left out here.

target gene | reagent no. | droplet/nuclear area B-score, replicate 1 | droplet/nuclear area B-score, replicate 2
pkaap | 1 | -0.179 | 0.0356
Tsf2 | 1 | -0.329 | -1.1
CG13403 | 1 | -1.12 | -1.1
WRNexo | 1 | -0.809 | 0.91
Rtf1 | 1 | 0.193 | 0.1
Klp67A + CG34456 | 1 | 0.193 | 0.00637
Tsp42A | 1 | -0.109 | -0.0671
Best3 | 1 | 3.29 | 4.57
Ucp4B | 1 | -0.14 | 0.801
LManIII | 1 | 0.449 | 2.13
CG13946 | 1 | 2.88 | -1.62
Pgant5 | 1 | 1.95 | -3.14
emp | 1 | 2.12 | -1.48
emp | 2 | 0.71 | 0.847
ND-B12 | 1 | 0.433 | 1.51
CG13121 (retired record) | 1 | -0.556 | 0.129
TwdlU | 1 | 0.402 | 1.4
CG13858 (retired record) | 1 | -2.01 | 0.267
CG13858 (retired record) | 2 | -0.498 | 0.757
CG13858 (retired record) | 3 | -1.89 | -0.313
CG13858 (retired record) | 4 | -0.893 | -0.442
CG10513 | 1 | 0.0213 | 0.681
CG7384 | 1 | -0.0162 | 0.717
CG3746 | 1 | -1.93 | 0.282

Next part; the last 3 above are carried over.
target gene | reagent no. | droplet/nuclear area B-score, replicate 1 | droplet/nuclear area B-score, replicate 2
CG10513 | 1 | 0.0213 | 0.681
CG7384 | 1 | -0.0162 | 0.717
CG3746 | 1 | -1.93 | 0.282
Taf12L | 1 | -1.45 | 0.952
Dpp10 | 1 | -0.711 | -3.29
Dpp10 | 2 | -0.558 | -1.23
CG1792 | 1 | -0.851 | 0.814
PIG-U | 1 | -1.83 | -1.24
Cngl | 1 | -2.56 | -0.464
Or45a | 1 | -0.25 | -0.719
CG10803 | 1 | -0.899 | –
CG32219 | 1 | 2.94 | 2.2
Gr63a | 1 | -0.392 | -0.18
pbl | 1 | 4.99 | 0.456
CG16852 | 1 | -0.391 | -0.598
CG32983 | 1 | 1.2 | 0.0808
levy | 1 | 2.97 | 0.551
Obp99d | 1 | -0.0593 | 2.46
CG15144 | 1 | 2.38 | 0.000502
skl | 1 | -1.41 | 0.0398
Gad1 | 1 | 0.348 | -0.409
CG8539 | 1 | -0.16 | -1.01
CG8539 | 2 | 1.85 | 0.333
Orc2 | 1 | -5.44 | 3.93
alpha-Est8 | 1 | -0.372 | -0.563
CG6294 + CG6299 + CG15642 | 1 | 0.226 | 0.866
CG32582 (retired record) | 1 | -1.07 | -1.21
Mpc1 | 1 | -4.03 | -1.73
CG15800 | 1 | 0.352 | -0.839
Ca-alpha1T | 1 | -0.823 | -1.87
Ca-alpha1T | 2 | 0.101 | 0.762
Ca-alpha1T | 3 | -1.3 | -0.633
Ca-alpha1T | 4 | 0.0112 | 0.224
Ca-alpha1T | 5 | 0.125 | 0.355
Taf13 | 1 | 1.19 | -0.0339
